Measured values from patent publication US20060264418A1, “6-(2,2,2-Trifluoroethylamino-7-chloro-2,3,4,5-tetrahydro-1h-benzo[d] azephine as a 5-ht2c receptor agonist” (priority 2003, published 2006).
For at least one compound, name, drawing or mass did not settle the structure.

How the values were obtained:
male NIH Swiss mice [1] = test: Marble burying assay (with rotorod); format: in vivo, mouse; settings: 30 min. burying session
Source text: Marble burying in mice has been used to model anxiety disorders including obsessive-compulsive disorders (OCD) due to ethological study of the behavior (e.g. Gyertyan I. “Analysis of the marble burying response: Marbles serve to measure digging rather than evoke burying”, Behavioural Pharmacology 6: 24-31, (1995)) and due to the pharmacological effects of clinical standards (c.f., Njung′E K. Handley S L. “Evaluation of marble-burying behavior as a model of anxiety”, Pharmacology, Biochemistry & Behavior. 38: 63-67, (1991)); Borsini F., Podhorna J., and Marazziti, D. “Do animal models of anxiety predict anxiolytic effects of antidepressants?”, Psychopharmacology 163: 121-141, (2002)). Thus, drugs used in the treatment of generalized anxiety in humans (e.g. benzodiazepines) as well as compounds used to treat OCD (e.g. SSRIs like fluoxetine) decrease burying.
House experimentally-naïve male, NIH Swiss mice (Harlan Sprague-Dawley, Indianapolis, Ind.) weighing between 28-35 g in groups of 12 for at least three days prior to testing in a vivarium with 12 hr. light and dark cycles. Conduct experiments during the light cycle in a dimly lit experimental testing room. […]
Clinically effective standard compounds suppress marble burying at doses that are devoid of motor-impairing effects as measured on the rotorod. […]

male NIH Swiss mice [2] = test: Nestlet shredding; format: in vivo, mouse; settings: 30 min.
Source text: Mice naturally will construct nests of material available in their living environment. Since this behavior is obsessive in nature, it has been used to model OCD (Mia Li, Denise Morrow and Jeffrey M. Witkin, “Decreases in nestlet shredding of mice by serotonin uptake inhibitors: comparison with marble burying”, Psychopharmacology, submitted Jul. 14, 2003). House experimentally-naïve male, NIH Swiss mice (Harlan Sprague-Dawley, Indianapolis, Ind.) weighing between 28-35 g in groups of 12 for at least three days prior to testing in a vivarium with a 12 hr. light/dark cycle. Conduct experiments during the light cycle in an experimental room with normal overhead fluorescent lighting. Dose mice with vehicle or test compound and after a specified pretreatment interval (generally 30 min.), place the mice individually in a 17×28×12 cm high plastic tub with about 5 mm sawdust shavings on the floor along with a pre-weighed multi-ply gauze pad (51 mm square). After 30 min., weigh the remainder of the gauze pad not removed by the mouse. Determine the weight of the gauze used for nestlet construction by subtraction. Compare the results for test compound treated mice to the results for vehicle control treated mice with Dunnett's test.
Clinically effective OCD treatment standard compounds suppress nestlet shredding at doses that are devoid of motor-impairing effects as measured by the rotorod test. […]

## CNC1=Nc2ccc(Cl)cc2C(c2ccccc2)=[N+]([O-])C1 [chlordiazepoxide, reference compound]
Male NIH Swiss mice [1]
  marble burying behavior (relative to rotorod performance): decreased marble burying only at doses that also disrupt rotorod performance
Male NIH Swiss mice [2]
  nestlet shredding (relative to motor effects, rotorod test): decrease nestlet shredding only at doses that produce motoric side effects
